Construct, isoform or probe ends are uncertain for at least one entry. Results from cells or extracts need not show a direct contact. A weaker result is weaker than the reference pair of the same experiment. Protein sequences can lack the tags named with them.
Molecular target: T1, MEF2D-Flag (UniProt Q03413)
T1 sequence (looked up, limits assumed): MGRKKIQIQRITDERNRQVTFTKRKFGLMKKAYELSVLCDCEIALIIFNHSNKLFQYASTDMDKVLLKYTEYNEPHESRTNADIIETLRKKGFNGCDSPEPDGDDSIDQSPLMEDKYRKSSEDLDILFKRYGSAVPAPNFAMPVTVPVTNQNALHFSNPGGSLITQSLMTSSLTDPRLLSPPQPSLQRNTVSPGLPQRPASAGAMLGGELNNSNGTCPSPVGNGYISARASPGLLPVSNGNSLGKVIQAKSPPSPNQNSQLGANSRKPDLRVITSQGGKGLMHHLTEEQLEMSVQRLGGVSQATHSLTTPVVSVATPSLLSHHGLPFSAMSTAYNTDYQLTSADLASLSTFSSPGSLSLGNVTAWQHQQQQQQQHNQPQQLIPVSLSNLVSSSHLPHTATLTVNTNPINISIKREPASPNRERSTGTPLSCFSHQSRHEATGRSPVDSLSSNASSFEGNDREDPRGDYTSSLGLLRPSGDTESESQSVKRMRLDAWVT
Experiment: EMSA
Details: 10 mM HEPES pH 7.9, 50 mM KCl, 2 mM MgCl2, 0.1 mM EDTA, 2 mM spermidine, 10% glycerol, 0.1 mg/ml BSA, 0.02% NP-40, 500 ng poly(dI-dC), 20 ug extract, ~1 ng probe; protein in a lysate after overexpression; label: 32P-dCTP (Klenow fill-in)

| Sequence | binding result |
| --- | --- |
| GTAGAGCTTTATATATAAAACTTATAC (double strand) [IE2] | binds |
| GCTCACTCCTATATAAAGTCAGGG (double strand) [PE] | binds more weakly |
| CTGTATATTTATATCTATTTATTATAATGC (double strand) [DE] | binds |
| CACCAGATTATTATTATTTTAGAC (double strand) [IE1] | binds |
| AGCTCGCTCTAAAAATAACCCTGGATCC (double strand) [MCK] | binds |
